From PubChem BioAssay AID2417 (National Center for Advancing Translational Sciences (NCATS), 2010)
The campaign covered roughly 140,000 compounds. About 4,300 (3.1%) were called active. The inconclusive results got no clear call from the source; some entries with a clear call stand among them for comparison.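 How the source made its calls: active means readout at or below -70, meaning at least 70% loss of cells showing the perinucleolar compartment, a nuclear body marking cancer cells; inconclusive means readout between -30 and a set limit; inactive means the rest.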

test: High Content Assay for Compounds that inhibit the Assembly of the Perinucleolar Compartment; details: PC3M PTB-GFP, PNC prevalence imaging, 16 h; at 10 µM; stronger effect = lower value;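 further: plate controls were DMSO wells for no effect and camptothecin positive control wells for full effect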
Method in brief: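 Compounds are pinned in duplicate onto adhered PC3M cells stably expressing GFP-tagged PTB and incubated 16 h at 37 C. Cells are then fixed, nuclei stained with Hoechst, and PNC-positive cells counted.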

Row | Structure (SMILES) | activity change (PNC), negative = inhibition
1 | Cc1sc(NC(=O)c2ccco2)c(CN2CCN(c3ccccn3)CC2)c1C | inconclusive: -41.9%
2 | CN1C2C=C(N(CCc3c[nH]c4ccccc34)C(=O)c3ccc(Cl)cc3)CC1CC2 (configuration not stated) | inactive: 8.09%
3 | CC(=O)Nc1ccc(NC(=O)C(C)OC(=O)CN(C)S(=O)(=O)c2ccc(Cl)cc2)cc1 (configuration not stated) | active: -113%
4 | COc1ccc(-c2cnnn2-c2ccc(NC(=O)c3ccc(S(=O)(=O)N4CCCCC4)cc3)cc2)cc1OC | inactive: 65.5%
5 | COC(=O)CSc1nc(NC(C)=O)nc(C)c1Br | inconclusive: -40.9%
6 | CC1CCCCN1S(=O)(=O)c1cccc2cccnc12 (configuration not stated) | inconclusive: -62.1%
7 | COc1ccc(C2/C(=C(/O)c3ccccc3)C(=O)C(=O)N2CC(C)O)c(OC)c1 (configuration not stated) | inactive: 58.1%
8 | CCOC(=O)C1(C)C=C(Nc2ccc(O)cc2)C(=O)N1c1ccc(O)cc1 (configuration not stated) | inactive: -11.5%
9 | COc1ccc(/C=C2\N=C3CCCCCN3C2=O)cc1OC | inactive: 4.01%
10 | O=C(O)CSC1CC(=O)N(c2ccc(Cl)cc2)C1=O (configuration not stated) | inconclusive: -44.7%
11 | CCOC(=O)C1=C(N)n2c(s/c(=C\c3ccco3)c2=O)=C(C(=O)OCC)C1c1ccco1 (configuration not stated) | inconclusive: -30.6%
12 | CC(=O)Nc1nc(C(=O)Nc2c(C)n[nH]c2C)cs1 | inconclusive: -33.4%
13 | CCn1c(CSc2nc3ccccc3s2)nnc1SCC(=O)c1ccc(O)c(O)c1 | inconclusive: -33.1%
14 | Cc1nc2ccccn2c1C(=O)NCc1cccnc1 | active: -85.5%
15 | CC(C)CC(NC(=O)c1ccccc1)C(=O)OCC(=O)Nc1ccc(Br)cn1 (configuration not stated) | inconclusive: -72.1%
16 | Cc1csc(NC(=O)C(NS(=O)(=O)c2ccc(Br)s2)c2ccccc2)n1 (configuration not stated) | inconclusive: -34.5%
17 | CCOc1ccc(OCC)c(NC(=O)CN2CCN(c3ccc(C)cc3C)CC2)c1 | inconclusive: -37.9%
18 | OC(COc1ccccc1)CN1CCOCC1 (configuration not stated) | active: -100%
19 | O=C(CSc1nc(Nc2ccccc2)nc(N2CCOCC2)n1)N1CCc2ccccc21 | active: -117%

Row | Structure (SMILES) | activity change (PNC), negative = inhibition
20 | Cc1cc(C)nc(-n2cc(C(=O)c3cc(F)ccc3O)cn2)n1 | inactive: 72.6%
21 | C=CCSc1nnc2c(n1)OC=Nc1ccccc1-2 | inconclusive: -33.2%
22 | Cn1c(=O)c2c(nc(NC(Cc3ccccc3)C(=O)O)n2Cc2ccccc2)n(C)c1=O (configuration not stated) | inconclusive: -37.1%
23 | COc1cc(C(=O)N2CCN(C(=O)C3CC3)CC2)cc(OC)c1OC | inactive: 11.7%
24 | Cc1cc(C)cc(NC(=O)c2ccccc2CC[N+](=O)[O-])c1 | inactive: 29.7%
25 | CC1CN=C(c2cccn2Cc2ccc(F)cc2Cl)O1 (configuration not stated) | inactive: 60.3%
26 | CC(C)(C)SCCNC(=O)CN(c1ccc(F)cc1)S(C)(=O)=O | inconclusive: -48.2%
27 | CC(Oc1cc(Cl)ccc1Cl)C(=O)N/N=C\c1ccnn1C (configuration not stated) | active: -109%
28 | COc1ccc(NC(=S)NCC2CCCO2)c(OC)c1 (configuration not stated) | inconclusive: -39.3%
29 | CCCC(=O)Nc1sc2c(c1C(=O)OC)C(C(=O)OC)CC2 (configuration not stated) | inconclusive: -79.7%
30 | CC(C)OC(=O)/C(=C/c1cccnc1)NC(=O)c1ccccc1 | active: -91.8%
31 | CCOc1ccc(NC(=O)CN2CCN(CC(=O)c3ccc(OC)c(OC)c3)CC2)cc1 | inactive: 10.4%
32 | CCC(C)c1ccc(NC(=O)CSc2nncn2N)cc1 (configuration not stated) | inactive: -19.8%
33 | Cc1ccc2cc(C)c3nnc(SCC(=O)Nc4nc5c(s4)CCCC5)n3c2c1 | inconclusive: -59.5%
34 | COc1ccc(C)cc1NC(=O)C1CCN(S(=O)(=O)c2cccc3cccnc23)CC1 | inconclusive: -78.1%
35 | O=c1c(O)c(-c2ccc3c(c2)OCO3)oc2ccccc12 | inconclusive: -43.5%
36 | C=CCn1c(SCn2nnc3ccccc3c2=O)nnc1-c1ccc(Br)cc1 | active: -83.7%
37 | CC(C)CC(=O)Nc1nnc(SCC(=O)NCc2ccco2)s1 | inconclusive: -35.6%
38 | O=c1c2ccccc2nc(SCc2cc([N+](=O)[O-])cc3c2OCOC3)n1-c1ccccc1 | active: -92.1%

Row | Structure (SMILES) | activity change (PNC), negative = inhibition
39 | CCC(=O)c1ccc(OCC(O)CN2CCOCC2)cc1 (configuration not stated) | inconclusive: -34.6%
40 | Cn1c(SCc2n[nH]c(=S)o2)nnc1-c1ccccc1 | inconclusive: -51.9%
41 | CCN(CC)S(=O)(=O)c1ccc2nnn(OCC(=O)Nc3cccc(C#N)c3)c2c1 | inactive: -23.7%
42 | CCn1cc(C(=O)NCc2ccco2)c2cc(OC)c(OC)cc2c1=O | inconclusive: -37%
43 | CCN(C(=O)Cc1cccs1)c1nnc(-c2cc(OC)c(OC)c(OC)c2)s1 | inactive: -12.4%
44 | Cc1cc(C)nc(N2CCN(CC(=O)NCc3ccccc3)CC2)n1 | inconclusive: -38.1%
45 | CC1CN(C(=O)Nc2ccc3snnc3c2)c2ccccc21 (configuration not stated) | inconclusive: -56%
46 | COc1ccccc1NC(=O)C1(C)Cc2ccccc2C(=O)O1 (configuration not stated) | inconclusive: -53.2%
47 | COc1cc(CC(=O)OCC(=O)Nc2ccc3c(c2)OCCO3)cc(OC)c1OC | inconclusive: -39.9%
48 | Cc1nn(Cc2cccc(C(=O)NC(C)c3ccc(C(C)(C)C)cc3)c2)c(C)c1[N+](=O)[O-] (configuration not stated) | inconclusive: -32.2%
49 | CCNC(=S)NCc1ccc2c(c1)OCO2 | inconclusive: -30.4%
50 | CCS(=O)(=O)Nc1ccc(C(=O)OC)cc1 | inactive: 0%
51 | O=C(C(=O)N1CCCc2ccccc21)c1c[nH]c2ccccc12 | inconclusive: -30%
52 | Cc1cc(NS(=O)(=O)c2ccc(NC(=O)C(c3ccccc3)c3ccccc3)cc2)no1 | inconclusive: -37.2%
53 | COc1ccc(-n2c(Cc3ccccc3)nnc2SCc2ccc([N+](=O)[O-])cc2)cc1 | inconclusive: -35.5%
54 | CC(=O)O[C@H]1C2OC(=O)C(C)=C2[C@@H]2OC(=O)[C@]3(CCC4OC41C)OC23 (some centres not stated) | active: -119%
55 | C/C(CC(=O)Nc1ccc(OCc2ccccc2)cc1)=N\NC(=O)C(=O)Nc1cccc(C)c1 | inconclusive: -50.5%
56 | Cn1c(=O)c2[nH]c(-c3ccccc3)c(O)c2n(C)c1=O | inactive: 1.61%
57 | CCN1CCCC1CN(Cc1cc2cc(C)cc(C)c2[nH]c1=O)C(=O)Nc1ccccc1OC (configuration not stated) | inactive: 47%

3 entries from above in another layout.
Row	Structure (SMILES)	activity change (PNC), negative = inhibition
44	Cc1cc(C)nc(N2CCN(CC(=O)NCc3ccccc3)CC2)n1	inconclusive: -38.1%
45	CC1CN(C(=O)Nc2ccc3snnc3c2)c2ccccc21 (configuration not stated)	inconclusive: -56%
46	COc1ccccc1NC(=O)C1(C)Cc2ccccc2C(=O)O1 (configuration not stated)	inconclusive: -53.2%
